Source: PubChem BioAssay AID2685 (National Center for Advancing Translational Sciences (NCATS), 2010)
Where “and” joins values, the source holds several entries; their conditions need not be identical. Equal entries are not always repeated. The list shows a part of the results. The main result of the screen is listed elsewhere. These columns were measured beside it and carry no call. Compounds called inactive in the main read-out are mostly missing here. Words in brackets tell the shape of the fitted curve; partial curves, single points and poor fits give uncertain potencies.

Experiment: qHTS Assay for Lipid Storage Modulators in Drosophila S3 Cells;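 on cell number change: cells counted by Cell Tracker Red CMTPX staining in the red channel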
Conditions: BODIPY lipid droplet fluorescence, 18-24 h; for cell number change: measured here: cell count max response, cells fed with added oleic acid
How it was run: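 Drosophila S3 cells got compounds at several concentrations plus oleic acid (400 uM solution). Laser-scanning cytometry with 488 nm excitation read lipid droplets at 500-530 nm and cells at 575-640 nm. Percent activity was relative to 20 uM Triacsin C.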

[1] = measured here: cell number channel AC50, cells fed with added oleic acid
[2] = measured here: lipid fluorescence (Fed channel) AC50, cells fed with added oleic acid

Compound	AC50 [1]	AC50 [2]	cell number change
O=C(OCC(=O)N1CCCC1)c1ccc(OC(F)(F)F)cc1	0.116 µM [falling, partial curve, poor fit]	1.84 µM [falling, partial curve, poor fit]	–
CCOC(=O)C1(C)NC(c2ccccc2F)C2C(=O)N(c3cccc(C(C)=O)c3)C(=O)C21 (stereo unspecified)	–	–	2.72%
C#CCNC(=O)C1=C[C@H](c2ccc(C(F)(F)F)cc2)C[C@H](OCCCCO)O1	–	1.84 µM [rising, partial curve]	-5.27%
Cc1ccc(CS(=O)(=O)c2ncc(Cl)c(C(=O)Nc3nnc(C)s3)n2)cc1	5.17 µM [falling, single point]	2.31 µM [falling, full curve]	-7.92%
O=C(CSc1nccn1-c1ccccc1)NCc1ccc(F)cc1	5.8 µM [rising, single point]	–	9.03%
O=C(CSc1nn(-c2ccc(Cl)cc2)c(=S)s1)N1CCN(C(=O)c2ccco2)CC1	–	–	-27.2%
CCCN1CCN(C(=O)c2oc3ccccc3c2NC(=O)COc2ccc(OC)cc2)CC1	–	16.4 µM [rising, partial curve]	13.4%
COc1ccc(-c2nc(C(=O)NCCCN3CCOCC3)cc3c2[nH]c2ccccc23)cc1OC	10.3 µM [falling, partial curve, poor fit]	2.06 µM [falling, partial curve]	-37.9%
Cc1cc(CCN2CCC(=O)NC2=O)ccc1OC(C)C	–	4.11 µM [falling, single point]	8.27%
C=CCNC(=S)Nc1ccc(Cl)cc1	–	0.651 µM [falling, full curve, poor fit]	14.7%
COc1cc(CC(=O)NCCCc2ccccc2)cc(OC)c1OC	–	2.31 µM [rising, partial curve]	12.1%
COc1ccc(OC)c(NC2=C(Cl)C(=O)N(Cc3ccccc3)C2=O)c1	0.82 µM [falling, partial curve]	29.1 µM [falling, single point]	-55.9%
C=CCc1cccc2cc(C(=O)N(CC)CC)c(=O)oc12	0.326 µM [rising, full curve]	6.51 µM [rising, partial curve, poor fit]	-19.3%
O=C(CNS(=O)(=O)c1cccc2nsnc12)NC1CCCCC1	–	–	7.37%
O=C(NCC1COc2ccccc2O1)c1cc(S(=O)(=O)N2CCOCC2)c(Cl)cc1Cl (stereo unspecified)	16.4 µM [rising, partial curve]	–	98.5%
Cc1nc(C)c(-c2ccc(SCc3ccc(Cl)cc3)nn2)s1	–	6.51 µM [rising, single point]	6.27%
CC(=O)Nc1sc(NC(=O)c2ccccc2)nc1-c1cccs1	–	–	-0.272%
O=C(NCCSC1CCCCC1)c1ccccc1	14.6 µM [rising, partial curve]	–	108%
O=c1c2cn[nH]c2[nH]c(=S)n1-c1ccccc1F	20.6 µM [falling, single point]	20.6 µM [falling, single point]	-51.5%

Retrieved by structure from above (2):
Compound	AC50 [1]	AC50 [2]	cell number change
O=C(OCC(=O)N1CCCC1)c1ccc(OC(F)(F)F)cc1	0.116 µM [falling, partial curve, poor fit]	1.84 µM [falling, partial curve, poor fit]	–
O=C(NCC1COc2ccccc2O1)c1cc(S(=O)(=O)N2CCOCC2)c(Cl)cc1Cl (stereo unspecified)	16.4 µM [rising, partial curve]	–	98.5%

Additional results:

Compound	AC50 [1]	AC50 [2]	cell number change
CCOc1ccccc1C(=O)NCC(=O)OCC(=O)NCCc1ccc(S(N)(=O)=O)cc1	20.6 µM [falling, partial curve]	–	-33.1%
O=[N+]([O-])c1cccc(C(=S)N2CCN(c3ccc(F)cc3)CC2)c1	0.731 µM [rising, partial curve]	–	-1.22%
COc1ccc(CNC(=O)c2cc3c(=O)n4ccccc4nc3n(Cc3cccnc3)c2=N)cc1	–	0.103 µM [rising, full curve, poor fit]	7.16%
CCNC(=O)c1ccccc1NC(=O)C1CC(=O)N(C(C)C)C1 (stereo unspecified)	–	20.6 µM [rising, partial curve]	-21%
CSc1ccc(Cl)c(C(=O)N(C)CC(=O)Nc2ccc(N3CCOCC3)cc2)c1	20.6 µM [rising, single point]	–	42.5%
COc1cc(C2C3=C(CC(C)(C)CC3=O)OC3=C2C(=O)CC(C)(C)C3)cc([N+](=O)[O-])c1O	–	0.259 µM [rising, full curve, poor fit]	6.68%
COc1ccc2cc(S(=O)(=O)N3CCCC(C)C3)ccc2c1 (stereo unspecified)	–	0.082 µM [falling, partial curve, poor fit]	8.55%
COc1cccc(CNc2ncnc3ccc(-c4c(C)noc4C)cc23)c1	0.13 µM [falling, full curve, poor fit]	16.4 µM [falling, partial curve, poor fit]	3.42% and -0.368%
O=C(NNC(=O)C12CC3CC(CC(C3)C1)C2)c1ccccc1O	–	29.1 µM [falling, single point]	-16.4%
CC1(C)C2CCC(C2)C1(C)NC(=O)CNCc1cccs1 (stereo unspecified)	–	29.1 µM [falling, partial curve, poor fit]	2.98%
C[C@H]1CCC[C@@]2(O[C@@H](CCO)C[C@@H](O)[C@@H]2O)O1	–	0.082 µM [rising, full curve, poor fit]	0.818%
CC12C(=O)N(c3ccc(C(=O)N4CCOCC4)cc3)C(=O)C1C1c3ccccc3C2c2ccccc21 (stereo unspecified)	11.6 µM [falling, partial curve]	–	-66.7%
COc1ccc(C(=O)c2cn[nH]c2-c2ccc(C)cc2O)cc1	–	0.103 µM [falling, full curve, poor fit]	2.95%
O=C(C1CCCCC1)N1CCC(c2nc3ccccc3[nH]2)CC1	–	9.2 µM [rising, partial curve]	-8.26%
CC1(C)C(c2cccs2)=[N+]([O-])C2(CCCCC/C2=N\O)N1O (stereo unspecified)	–	–	23.4%
CC12CCC(=O)N1C(C(=O)Nc1cccc(F)c1)CS2 (stereo unspecified)	–	–	-13.6%
CC(=O)NCCN1C(=O)C2C3c4ccccc4C(c4ccccc43)C2C1=O (stereo unspecified)	1.3 µM [falling, full curve]	1.64 µM [falling, full curve]	-35.3%
C=CCn1c(COc2ccccc2)nnc1SCC(=O)NCC(=O)OCC	0.92 µM [rising, full curve, poor fit]	1.84 µM [rising, full curve]	21.6%
